# The supplement of paper PMC12067093, “Discovery and optimisation of a covalent ligand for TRIM25 and its application to targeted protein ubiquitination” (Chemical Science, 2025)
# Amino acid sequences for entries named in this document (tags omitted). A change or cut given only in a name is not applied to a line headed by its entry.
# UniProt O43396: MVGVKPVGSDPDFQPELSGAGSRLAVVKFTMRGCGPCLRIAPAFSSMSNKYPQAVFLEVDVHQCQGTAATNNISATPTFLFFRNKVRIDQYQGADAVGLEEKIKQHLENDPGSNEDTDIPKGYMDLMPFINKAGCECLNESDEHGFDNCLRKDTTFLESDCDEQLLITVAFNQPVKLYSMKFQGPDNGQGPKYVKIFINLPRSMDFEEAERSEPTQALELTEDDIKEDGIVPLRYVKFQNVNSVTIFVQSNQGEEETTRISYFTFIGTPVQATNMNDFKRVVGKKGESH
# UniProt Q9H832: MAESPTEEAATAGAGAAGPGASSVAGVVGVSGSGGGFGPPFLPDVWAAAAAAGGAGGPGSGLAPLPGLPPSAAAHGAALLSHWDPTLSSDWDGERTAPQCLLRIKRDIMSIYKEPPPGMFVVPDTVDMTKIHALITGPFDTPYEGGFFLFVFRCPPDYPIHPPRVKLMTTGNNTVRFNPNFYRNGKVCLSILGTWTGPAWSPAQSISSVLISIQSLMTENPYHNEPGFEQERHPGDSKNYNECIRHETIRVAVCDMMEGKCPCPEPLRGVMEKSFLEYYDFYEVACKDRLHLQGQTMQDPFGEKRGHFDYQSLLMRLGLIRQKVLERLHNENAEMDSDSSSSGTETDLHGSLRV
# UniProt Q9BZL1: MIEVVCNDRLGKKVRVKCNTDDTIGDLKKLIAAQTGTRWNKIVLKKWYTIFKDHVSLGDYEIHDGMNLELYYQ
# UniProt Q5T4S7, whole entry, looked up: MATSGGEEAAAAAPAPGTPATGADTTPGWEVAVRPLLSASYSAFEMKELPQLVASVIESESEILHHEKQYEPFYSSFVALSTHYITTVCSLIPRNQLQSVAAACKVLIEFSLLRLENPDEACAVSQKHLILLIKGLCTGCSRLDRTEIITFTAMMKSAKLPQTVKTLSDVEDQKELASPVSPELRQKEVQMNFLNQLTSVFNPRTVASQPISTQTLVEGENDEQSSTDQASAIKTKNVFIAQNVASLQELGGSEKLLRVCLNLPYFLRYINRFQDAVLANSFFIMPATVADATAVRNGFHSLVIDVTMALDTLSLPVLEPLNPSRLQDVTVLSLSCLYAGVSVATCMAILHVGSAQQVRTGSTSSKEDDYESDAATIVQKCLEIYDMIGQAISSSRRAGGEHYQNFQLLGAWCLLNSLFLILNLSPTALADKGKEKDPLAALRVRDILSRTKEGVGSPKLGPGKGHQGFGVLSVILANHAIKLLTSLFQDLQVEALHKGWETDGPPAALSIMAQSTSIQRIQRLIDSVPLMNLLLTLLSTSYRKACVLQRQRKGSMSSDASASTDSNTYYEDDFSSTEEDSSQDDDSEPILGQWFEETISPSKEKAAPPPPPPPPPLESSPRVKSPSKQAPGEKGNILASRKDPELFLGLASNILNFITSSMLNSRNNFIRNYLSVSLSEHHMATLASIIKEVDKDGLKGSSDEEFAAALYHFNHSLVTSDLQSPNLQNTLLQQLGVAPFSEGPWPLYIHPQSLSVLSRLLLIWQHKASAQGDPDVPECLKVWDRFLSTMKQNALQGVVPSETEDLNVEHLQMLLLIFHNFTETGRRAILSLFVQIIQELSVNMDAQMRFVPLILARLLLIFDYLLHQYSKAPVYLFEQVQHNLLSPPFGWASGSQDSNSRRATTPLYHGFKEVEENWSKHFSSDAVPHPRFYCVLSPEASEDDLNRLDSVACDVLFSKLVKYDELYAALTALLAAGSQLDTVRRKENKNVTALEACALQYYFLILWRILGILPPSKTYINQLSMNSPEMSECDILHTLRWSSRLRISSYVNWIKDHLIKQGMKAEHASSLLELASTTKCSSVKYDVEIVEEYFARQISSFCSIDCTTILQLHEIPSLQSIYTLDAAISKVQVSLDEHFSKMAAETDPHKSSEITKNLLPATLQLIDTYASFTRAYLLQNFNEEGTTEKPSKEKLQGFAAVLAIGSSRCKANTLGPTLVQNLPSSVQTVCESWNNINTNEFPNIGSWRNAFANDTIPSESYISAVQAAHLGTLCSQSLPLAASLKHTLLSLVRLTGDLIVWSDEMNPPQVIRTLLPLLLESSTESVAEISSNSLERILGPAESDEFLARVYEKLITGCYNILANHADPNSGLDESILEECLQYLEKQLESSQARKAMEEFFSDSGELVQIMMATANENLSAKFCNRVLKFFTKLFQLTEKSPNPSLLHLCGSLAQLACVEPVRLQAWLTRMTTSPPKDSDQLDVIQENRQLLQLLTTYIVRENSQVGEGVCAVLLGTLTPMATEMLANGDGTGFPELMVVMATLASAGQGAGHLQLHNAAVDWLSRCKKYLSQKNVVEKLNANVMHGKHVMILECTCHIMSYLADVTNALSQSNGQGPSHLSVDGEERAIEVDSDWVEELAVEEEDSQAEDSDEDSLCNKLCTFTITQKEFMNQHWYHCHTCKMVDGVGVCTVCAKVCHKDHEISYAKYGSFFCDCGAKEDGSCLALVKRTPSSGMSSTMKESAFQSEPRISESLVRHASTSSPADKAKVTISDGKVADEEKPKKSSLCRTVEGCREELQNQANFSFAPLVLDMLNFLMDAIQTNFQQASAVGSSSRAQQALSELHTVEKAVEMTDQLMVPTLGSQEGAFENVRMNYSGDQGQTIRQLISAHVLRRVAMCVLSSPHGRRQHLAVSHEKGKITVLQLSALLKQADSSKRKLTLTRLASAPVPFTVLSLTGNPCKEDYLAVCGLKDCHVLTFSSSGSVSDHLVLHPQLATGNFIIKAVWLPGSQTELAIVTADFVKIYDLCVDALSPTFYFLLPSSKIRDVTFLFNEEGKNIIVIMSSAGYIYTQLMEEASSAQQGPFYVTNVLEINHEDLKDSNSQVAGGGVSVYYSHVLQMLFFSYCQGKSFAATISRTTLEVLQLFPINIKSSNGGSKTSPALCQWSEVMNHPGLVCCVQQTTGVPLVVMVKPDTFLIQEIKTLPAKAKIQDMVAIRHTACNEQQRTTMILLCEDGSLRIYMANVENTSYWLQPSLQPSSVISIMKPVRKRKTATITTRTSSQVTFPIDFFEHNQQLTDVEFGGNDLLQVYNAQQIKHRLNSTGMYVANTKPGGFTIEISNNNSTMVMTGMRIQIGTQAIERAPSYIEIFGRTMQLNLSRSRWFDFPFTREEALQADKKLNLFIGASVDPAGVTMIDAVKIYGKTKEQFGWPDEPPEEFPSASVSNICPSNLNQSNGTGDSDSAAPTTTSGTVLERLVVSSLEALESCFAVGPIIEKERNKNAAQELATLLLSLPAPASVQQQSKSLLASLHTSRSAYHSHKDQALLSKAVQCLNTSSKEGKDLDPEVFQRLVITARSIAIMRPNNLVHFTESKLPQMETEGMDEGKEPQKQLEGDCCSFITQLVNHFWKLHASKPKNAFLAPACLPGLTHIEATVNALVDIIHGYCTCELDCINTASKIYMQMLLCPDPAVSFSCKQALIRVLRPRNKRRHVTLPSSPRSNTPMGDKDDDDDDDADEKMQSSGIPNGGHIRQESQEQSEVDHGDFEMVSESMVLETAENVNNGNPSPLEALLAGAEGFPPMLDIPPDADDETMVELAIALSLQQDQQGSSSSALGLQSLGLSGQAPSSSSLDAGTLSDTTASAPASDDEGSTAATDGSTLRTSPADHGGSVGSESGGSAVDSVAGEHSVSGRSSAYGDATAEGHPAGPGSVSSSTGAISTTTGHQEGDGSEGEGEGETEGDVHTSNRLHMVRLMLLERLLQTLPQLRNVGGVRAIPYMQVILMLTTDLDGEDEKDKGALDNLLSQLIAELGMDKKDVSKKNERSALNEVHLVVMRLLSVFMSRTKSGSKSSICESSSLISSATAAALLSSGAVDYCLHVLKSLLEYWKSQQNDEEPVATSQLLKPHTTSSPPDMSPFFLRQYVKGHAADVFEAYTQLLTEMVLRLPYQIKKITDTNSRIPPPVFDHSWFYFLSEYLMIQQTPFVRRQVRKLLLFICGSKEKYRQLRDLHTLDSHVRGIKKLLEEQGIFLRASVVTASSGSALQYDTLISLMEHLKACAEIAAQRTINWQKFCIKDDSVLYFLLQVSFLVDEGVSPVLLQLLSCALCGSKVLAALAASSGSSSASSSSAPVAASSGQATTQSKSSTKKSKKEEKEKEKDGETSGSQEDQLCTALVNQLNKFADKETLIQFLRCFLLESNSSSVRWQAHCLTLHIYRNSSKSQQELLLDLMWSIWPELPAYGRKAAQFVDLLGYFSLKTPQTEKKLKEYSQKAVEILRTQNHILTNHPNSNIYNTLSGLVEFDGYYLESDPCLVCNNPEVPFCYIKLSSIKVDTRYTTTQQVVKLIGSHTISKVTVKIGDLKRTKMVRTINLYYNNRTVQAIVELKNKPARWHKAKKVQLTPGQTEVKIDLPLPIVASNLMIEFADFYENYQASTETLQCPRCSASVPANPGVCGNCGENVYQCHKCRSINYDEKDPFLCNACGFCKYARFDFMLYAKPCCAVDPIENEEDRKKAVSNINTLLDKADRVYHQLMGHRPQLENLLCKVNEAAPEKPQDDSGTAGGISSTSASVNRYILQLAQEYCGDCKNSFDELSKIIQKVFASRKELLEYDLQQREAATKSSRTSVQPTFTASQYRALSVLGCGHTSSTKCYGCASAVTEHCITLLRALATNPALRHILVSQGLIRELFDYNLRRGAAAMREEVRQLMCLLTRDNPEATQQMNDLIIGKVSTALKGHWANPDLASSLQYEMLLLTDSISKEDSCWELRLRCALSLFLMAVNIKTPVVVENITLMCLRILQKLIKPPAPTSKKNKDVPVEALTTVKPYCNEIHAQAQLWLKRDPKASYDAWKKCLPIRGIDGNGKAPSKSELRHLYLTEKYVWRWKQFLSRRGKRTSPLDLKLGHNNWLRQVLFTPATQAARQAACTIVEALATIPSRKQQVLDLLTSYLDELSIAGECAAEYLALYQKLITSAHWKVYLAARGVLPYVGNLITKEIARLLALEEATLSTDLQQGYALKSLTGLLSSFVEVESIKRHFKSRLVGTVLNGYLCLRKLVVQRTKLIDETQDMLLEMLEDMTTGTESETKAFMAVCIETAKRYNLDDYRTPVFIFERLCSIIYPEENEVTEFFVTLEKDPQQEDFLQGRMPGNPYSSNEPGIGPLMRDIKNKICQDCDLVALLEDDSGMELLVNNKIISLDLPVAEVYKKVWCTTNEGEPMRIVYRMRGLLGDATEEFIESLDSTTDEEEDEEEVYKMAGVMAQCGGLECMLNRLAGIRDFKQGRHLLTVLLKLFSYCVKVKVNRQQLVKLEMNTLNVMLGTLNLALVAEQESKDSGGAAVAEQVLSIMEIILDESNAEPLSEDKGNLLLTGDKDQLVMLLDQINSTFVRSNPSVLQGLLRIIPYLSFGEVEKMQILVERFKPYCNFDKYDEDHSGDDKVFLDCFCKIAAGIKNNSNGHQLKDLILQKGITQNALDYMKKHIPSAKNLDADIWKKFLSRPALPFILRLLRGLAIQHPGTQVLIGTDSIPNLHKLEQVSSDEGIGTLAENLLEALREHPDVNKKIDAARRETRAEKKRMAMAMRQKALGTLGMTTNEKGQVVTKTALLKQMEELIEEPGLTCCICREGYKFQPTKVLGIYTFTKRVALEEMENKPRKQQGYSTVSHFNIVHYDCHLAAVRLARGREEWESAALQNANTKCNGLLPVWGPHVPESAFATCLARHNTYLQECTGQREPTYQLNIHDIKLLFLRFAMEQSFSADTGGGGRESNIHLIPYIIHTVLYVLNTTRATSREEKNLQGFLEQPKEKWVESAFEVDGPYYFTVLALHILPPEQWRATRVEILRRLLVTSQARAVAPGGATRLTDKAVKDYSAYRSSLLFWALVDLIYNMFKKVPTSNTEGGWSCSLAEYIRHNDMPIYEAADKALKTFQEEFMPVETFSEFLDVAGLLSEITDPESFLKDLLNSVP
# The list shows a part of the results.
# Compound: Cc1cc(ccc1-c1ccccc1)C(=O)N1CCCN(CC1)C(=O)CCl [compound 10]
# Assay: probe-labelled cysteine peptide fold change vs DMSO (competition) (log2 fold change); higher = less target engagement (more negative = stronger competition)
# Settings: 50 µM; THP-1; incubation time: 4 h
# 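Also: competitive profiling in live THP-1 cells: cysteine peptides tagged with an iodoacetamide desthiobiotin (IA-DTB) probe, intensity after compound treatment relative to DMSO-treated cells.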
row,Target,probe-labelled cysteine peptide fold change
1,TXNL1_O43396_135+149_AGCECLNESDEHGFDNCLR (UniProt O43396),-0.546
2,UBN1_Q9NPG3_711_VGGVLCTEEK (UniProt Q9NPG3),0.0664
3,UBA6_A0AVT1_625_GHTEVIVPHLTESYNSHRDPPEEEIPFCTLK,0.0224
4,UBE2Z_Q9H832_243_NYNECIR (UniProt Q9H832),-0.257
5,UBE3D_Q7Z6J8_330_VLYQPCIK (UniProt Q7Z6J8),-0.056
6,UBL5_Q9BZL1_18_CNTDDTIGDLKK (UniProt Q9BZL1),-0.92
7,UBR5_O95071_2267_CATTPMAVHR (UniProt O95071),-0.592
8,UBASH3B_Q8TF42_474_CVQTAHNILK (UniProt Q8TF42),-0.0515
9,UBASH3B_Q8TF42_367_RPYEDQGLGETTPLTIICQPMQPLR (UniProt Q8TF42),-0.477
10,UBE2I_P63279_138_QILLGIQELLNEPNIQDPAQAEAYTIYCQNR (UniProt P63279),0.401
11,TXNRD2_Q9NNW7_446_DASQCYVK (UniProt Q9NNW7),0.101
12,UBR1_Q8IWV7_1577_WCADPALLNCLK (UniProt Q8IWV7),-0.0474
13,UBR1_Q8IWV7_99_HSGAFQLCGR (UniProt Q8IWV7),0.0566
14,UBAP2L_Q14157_68_NQDECVIALHDCNGDVNR (UniProt Q14157),0.00619
15,UBE2O_Q9C0C9_163_STDSQCGTVIDVNIDCAVK (UniProt Q9C0C9),0.325
16,UBA52_P62987_115_CGHTNNLRPK (UniProt P62987),-0.125
17,TXNL1_O43396_135_AGCECLNESDEHGFDNCLRK (UniProt O43396),-0.239
18,UBR4_Q5T4S7_1724_EDGSCLALVK (UniProt Q5T4S7),-0.127

# Shown with bars between the fields: part of the list above
row | Target | probe-labelled cysteine peptide fold change
1 | TXNL1_O43396_135+149_AGCECLNESDEHGFDNCLR (UniProt O43396) | -0.546
4 | UBE2Z_Q9H832_243_NYNECIR (UniProt Q9H832) | -0.257

# Next records follow.

row,Target,probe-labelled cysteine peptide fold change
1,UBE2M_P61081_47_TCDISFSDPDDLLNFK (UniProt P61081),-0.00247
2,UBR4_Q5T4S7_3864_ALSVLGCGHTSSTK (UniProt Q5T4S7),-0.246
3,UBR4_Q5T4S7_4838+4841_QMEELIEEPGLTCCICR (UniProt Q5T4S7),-0.00299
4,UBE3C_Q15386_252_ILLENVLKPLHFTYNSCPEGAR (UniProt Q15386),-0.0816
5,TXNL1_O43396_149_AGCECLNESDEHGFDNCLR (UniProt O43396),0.0846
6,UBE2L6_O14933_98_IYHPNVDENGQICLPIISSENWKPCTK (UniProt O14933),-0.676
7,UBE3A_Q05086_843_LPTSHTCFNVLLLPEYSSK (UniProt Q05086),-0.299
8,UBR1_Q8IWV7_1200_IHVDLFDLESGEYLCPLCK (UniProt Q8IWV7),0.167
9,UBR4_Q5T4S7_3872_CYGCASAVTEHCITLLR (UniProt Q5T4S7),0.3
10,UAP1_Q16222_293_TNPTEPVGVVCR (UniProt Q16222),-0.0283
11,UBA7_P41226_552_CTHYLK (UniProt P41226),-0.0584
12,TYMS_P04818_180_IIMCAWNPR (UniProt P04818),0.00629
13,UBE2G1_P62253_90_NGDVCISILHEPGEDK (UniProt P62253),0.131
14,UBA6_A0AVT1_156_YQCVVLTEMK,0.104
15,UBE2O_Q9C0C9_598_VQSCPDPAVYGVVQSGDHIGR (UniProt Q9C0C9),-0.349
16,UBR4_Q5T4S7_4146_QAACTIVEALATIPSR (UniProt Q5T4S7),0.0036
17,UBR1_Q8IWV7_1197+1200_IHVDLFDLESGEYLCPLCK (UniProt Q8IWV7),-0.351
